Measurements reported in PubChem BioAssay AID1259308 (NCATS, 2017)

- Screen: 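Knock-downs that increase output of a recombinant reporter protein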 (primary screen)
- Cells: human HEK293 embryonic kidney cells stably expressing firefly luciferase (HEK-CMV-Luc2-Hygro)
- Knock-down reagent: single siRNA against human genes, 0.8 pmol siRNA per well
- Duration: 72 h
- Detection: 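Luciferase light (ONE-Glo) measured on one replicate plate set and viability (CellTiter-Glo) on the other, scaled to a negative control siRNA, with robust z-scores and luciferase per cell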
- Scale: total luciferase, z-score and total luciferase, % of control: higher = more reporter protein produced; luciferase per cell, z-score: higher = more reporter output per viable cell; viable cells, % of control: higher = more viable cells
- Active means: 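An siRNA counts as active if its total luciferase robust z-score exceeds 3; genes with two or more such siRNAs out of three were retested with fresh siRNAs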
- Meaning of the calls: active = raised luciferase; inactive = no rise
Here is an unselected part of about 59,000 reagents tested. In the full data, about 1,510 (2.6%) are marked active. 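Calls use total luciferase alone and ignore viability, so some active siRNAs may act by altering cell number.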 Reagents against one gene are numbered here.

gene | reagent no. | total luciferase, z-score | total luciferase, % of control | luciferase per cell, z-score | viable cells, % of control | activity call
CLDN6 | 1 | -0.439 | 73.2 | -0.486 | 92.9 | inactive
CLDN6 | 2 | -0.612 | 69.7 | -0.664 | 92.8 | inactive
CLDN6 | 3 | 0.51 | 92 | 1.22 | 74.5 | inactive
CLHC1 | 1 | -0.246 | 77 | -0.0904 | 88.1 | inactive
CLHC1 | 2 | -1.35 | 55 | -0.606 | 72.1 | inactive
CLHC1 | 3 | 1.21 | 106 | 0.971 | 91.6 | inactive
SNCA-AS1 | 1 | -0.18 | 78.3 | -0.125 | 90.4 | inactive
SNCA-AS1 | 2 | 0.192 | 85.7 | 0.741 | 78.8 | inactive
SNCA-AS1 | 3 | 2.16 | 125 | 1.75 | 87.9 | inactive
ARHGDIA | 1 | 1.08 | 103 | 0.17 | 110 | inactive
ARHGDIA | 2 | 1.54 | 113 | 1.3 | 89.3 | inactive
ARHGDIA | 3 | 0.0378 | 82.6 | 0.0931 | 90.1 | inactive
ENAM | 1 | 2.45 | 131 | 2.29 | 79.9 | inactive
ENAM | 2 | 1.63 | 114 | 2.08 | 73.8 | inactive
ENAM | 3 | -0.872 | 64.6 | -0.47 | 81.6 | inactive
HAL | 1 | -0.257 | 76.8 | 0.88 | 68 | inactive
HAL | 2 | -0.228 | 77.3 | 0.229 | 81.4 | inactive
HAL | 3 | 2.47 | 131 | 2.21 | 81.8 | inactive
TLR9 | 1 | -0.119 | 79.5 | -0.0923 | 91.1 | inactive
TLR9 | 2 | 0.349 | 88.8 | 0.482 | 87.4 | inactive
TLR9 | 3 | 0.964 | 101 | 0.636 | 95.5 | inactive
RAPGEF1 | 1 | 0.296 | 87.8 | -0.194 | 103 | inactive
RAPGEF1 | 2 | -1.5 | 52 | -1.05 | 76.6 | inactive
RAPGEF1 | 3 | -1.15 | 59 | -1.47 | 97.1 | inactive
IFNGR1 | 1 | 0.599 | 93.8 | 0.221 | 98.9 | inactive
IFNGR1 | 2 | 1.14 | 104 | 0.306 | 108 | inactive
IFNGR1 | 3 | -0.114 | 79.6 | -0.535 | 102 | inactive
ESRRG | 1 | 1.66 | 115 | 0.497 | 113 | inactive
ESRRG | 2 | 1.87 | 119 | 0.572 | 115 | inactive
ESRRG | 3 | -0.659 | 68.8 | -0.469 | 87 | inactive
OR4Q3 | 1 | 0.634 | 94.5 | 0.167 | 101 | inactive
OR4Q3 | 2 | 0.226 | 86.4 | 0.0899 | 94.3 | inactive
OR4Q3 | 3 | -0.134 | 79.2 | -0.715 | 107 | inactive
HNRNPCL1 | 1 | 2.51 | 132 | 1.19 | 108 | inactive
HNRNPCL1 | 2 | 0.469 | 91.2 | -0.196 | 107 | inactive
HNRNPCL1 | 3 | 2.09 | 123 | 2.89 | 64.4 | inactive
ACTN1 | 1 | -0.22 | 77.5 | -0.672 | 103 | inactive
ACTN1 | 2 | 1.5 | 112 | 1.5 | 84.1 | inactive
ACTN1 | 3 | 0.255 | 87 | 0.154 | 93.3 | inactive
MYLK3 | 1 | -1.11 | 59.9 | -0.345 | 73.3 | inactive
MYLK3 | 2 | -1.71 | 47.9 | -1.64 | 82.4 | inactive
MYLK3 | 3 | -0.521 | 71.5 | -0.808 | 98.9 | inactive

13 entries from above, set out differently:
| gene | reagent no. | total luciferase, z-score | total luciferase, % of control | luciferase per cell, z-score | viable cells, % of control | activity call |
| --- | --- | --- | --- | --- | --- | --- |
| TLR9 | 3 | 0.964 | 101 | 0.636 | 95.5 | inactive |
| RAPGEF1 | 1 | 0.296 | 87.8 | -0.194 | 103 | inactive |
| RAPGEF1 | 2 | -1.5 | 52 | -1.05 | 76.6 | inactive |
| RAPGEF1 | 3 | -1.15 | 59 | -1.47 | 97.1 | inactive |
| IFNGR1 | 1 | 0.599 | 93.8 | 0.221 | 98.9 | inactive |
| IFNGR1 | 2 | 1.14 | 104 | 0.306 | 108 | inactive |
| IFNGR1 | 3 | -0.114 | 79.6 | -0.535 | 102 | inactive |
| ESRRG | 1 | 1.66 | 115 | 0.497 | 113 | inactive |
| ESRRG | 2 | 1.87 | 119 | 0.572 | 115 | inactive |
| ESRRG | 3 | -0.659 | 68.8 | -0.469 | 87 | inactive |
| OR4Q3 | 1 | 0.634 | 94.5 | 0.167 | 101 | inactive |
| OR4Q3 | 2 | 0.226 | 86.4 | 0.0899 | 94.3 | inactive |
| OR4Q3 | 3 | -0.134 | 79.2 | -0.715 | 107 | inactive |

The list goes on:
gene | reagent no. | total luciferase, z-score | total luciferase, % of control | luciferase per cell, z-score | viable cells, % of control | activity call
UNC5CL | 1 | 1.93 | 120 | 1.76 | 84.6 | inactive
UNC5CL | 2 | 0.693 | 95.7 | 0.282 | 99.2 | inactive
UNC5CL | 3 | -2.92 | 23.8 | -3.56 | 67.9 | inactive
NUP188 | 1 | 1.6 | 114 | 1.66 | 82 | inactive
NUP188 | 2 | -1.62 | 49.7 | -2.08 | 95.9 | inactive
NUP188 | 3 | 0.348 | 88.8 | -0.0352 | 100 | inactive
KIZ | 1 | 1.14 | 105 | 0.596 | 99.9 | inactive
KIZ | 2 | -0.806 | 65.8 | -1.03 | 96.4 | inactive
KIZ | 3 | 0.306 | 88 | 0.0578 | 96.8 | inactive
YTHDC2 | 1 | -0.721 | 67.5 | 0.243 | 70.8 | inactive
YTHDC2 | 2 | -0.853 | 64.9 | -0.914 | 92.3 | inactive
YTHDC2 | 3 | -0.358 | 74.8 | -0.602 | 97.9 | inactive
CLRN2 | 1 | 0.544 | 92.7 | 0.577 | 89 | inactive
CLRN2 | 2 | 0.176 | 85.4 | 0.209 | 90.3 | inactive
CLRN2 | 3 | 1.6 | 114 | 1.38 | 88.4 | inactive
DYNLT5 | 1 | 1.33 | 108 | 1.03 | 92.2 | inactive
DYNLT5 | 2 | -0.536 | 71.2 | 0.0743 | 78 | inactive
DYNLT5 | 3 | 0.698 | 95.8 | 0.865 | 85.2 | inactive
PTPN2P1 | 1 | 1.01 | 102 | 0.581 | 97.8 | inactive
PTPN2P1 | 2 | -0.396 | 74 | -0.396 | 91.8 | inactive
PTPN2P1 | 3 | 0.409 | 90 | 0.351 | 91.7 | inactive
SPHK2 | 1 | -1.03 | 61.4 | -0.767 | 84 | inactive
SPHK2 | 2 | -0.727 | 67.4 | 0.339 | 68.9 | inactive
SPHK2 | 3 | 1.2 | 106 | 1.45 | 80.6 | inactive
PLEKHF1 | 1 | 3.52 | 152 | 3.18 | 73.4 | active
PLEKHF1 | 2 | -1.76 | 46.8 | -2.4 | 98.4 | inactive
PLEKHF1 | 3 | 2.16 | 125 | 1.62 | 91.1 | inactive
AAGAB | 1 | -0.274 | 76.4 | -0.256 | 91.4 | inactive
AAGAB | 2 | 3.98 | 161 | 3.56 | 70.4 | active
AAGAB | 3 | -0.458 | 72.8 | -0.374 | 89.7 | inactive
EFCAB7 | 1 | 0.0312 | 82.5 | -0.526 | 106 | inactive
EFCAB7 | 2 | -0.457 | 72.8 | -0.363 | 89.5 | inactive
EFCAB7 | 3 | 0.227 | 86.4 | -0.51 | 110 | inactive
